The record followed here is patent publication US20110319600A1.

No constants are given. Whether binding was seen depends on the method and setting. For some of these results: A result given as binding can be weak or reduced; the word gives no strength.

For assay [1], the target named is hemagglutinin (HA) of human influenza B virus, B/Malaysia/2506/04 strain (human influenza B virus, B/Malaysia/2506/04 strain). The experiment in a line: ELISA; purified HA antigen of the strain on plate; hybridoma culture supernatant.
Assay [2] addresses hemagglutinin (HA) of human influenza A virus subtype H3N2, A/Guizhou/54/89 strain (human influenza A virus subtype H3N2, A/Guizhou/54/89 strain). The experiment in a line: PAP immunostaining of ethanol-fixed infected MDCK cells.
Assay [3] deals with hemagglutinin (HA) of human influenza A virus subtype H3N2, A/New York/55/04 strain (human influenza A virus subtype H3N2, A/New York/55/04 strain). The assay is described as above.
The target of assay [4] is hemagglutinin (HA) of human influenza A virus subtype H3N2, A/Wyoming/3/03 strain (human influenza A virus subtype H3N2, A/Wyoming/3/03 strain). The assay is described as above.

B1: D-1 monoclonal antibody (antibody, V domains shown)
VH: QVQLVQSGSELKKPGASVKVSCKASGYTFTSYSIYWVRQAPGQGLEWMGWINTNTGNPSYAQGFTGRFVFSFDTSVSTAYLEISSLKAEDTAVYYCAREGDYDILTGYYYYFDYWGQGTLVTVSS
VL: QTVVTQEPSFSVSPGGTVTLTCGLSSGSVSPSYYASWYQQTPGQAPRTLIYNTNTRSSGVPDRFSGSFLGSDAALTITGAQADDESDYFCVLYMPSGDWVFGGGTKLTVL
Take B1: the binding entry in assay [1] was “no binding”.

B2: B-1 monoclonal antibody (antibody, V domains shown)
VH: EENLLQSGGGLVQPGGSLRLSCAGSGFTFSTYAMTWVRQAPGQGLEWVSSISGSGEISYYADSVKGLFTISRDNSKDTVFLQMTSLRAEDTAVYYCAKSDVWEGYRPSKDALHMWGQGTMVTVSS
VL: DVQMTQSPSSLSASVGDRVTITCRASQSVSNYVNWYQQKPGRAPRLLISSASNLWAGVPPRFSGRGEETDFTLTITSLQPEDSAVYYCQQSYSDLLSFGGGTKVEIK
Regarding B2, the binding result in assay [2], in assay [3] and in assay [4] was “binds” each time.
